In PubChem BioAssay AID588855 (National Center for Advancing Translational Sciences (NCATS), 2011) one finds Potency data, which are given here for 1 compound.

This is a selection; strong and weak results do not stand in their true shares. Records with an inconclusive call do not appear. The source made the active and inactive calls. Calls come from the whole dose curve; as a rule, active = well fitted inhibition curve with a large enough effect; inconclusive = small, poorly fitted or top-dose-only effect; inactive = no such curve, though single readings can be large or run the other way.
Potency is the fitted concentration of half-maximal effect.

The experiment in a line: qHTS for Inhibitors of TGF-b. Note: nearly all actives have a fitted effect of over 65% in size. The conditions noted are these: HepG2 CAGA-GFP TGF-b/SMAD3 reporter, GFP fluorescence, 18 h; TGF-beta stimulated, 500 pg/mL final. The text has this: TGF-b is a main component in the TGF-b signaling pathway which plays diverse roles in cellular and development pathways. TGF-b is the mediated by the transcription factors Smads. Although the Smad-dependent pathway is the primary canonical TGF-b signaling node, TGF-b1 can also activate alternative signaling pathways, including those involving MAPK (ERK, JNK and p38). This interaction may mediate or enhance Smad-dependent responses, or can exert Smad-independent effects. The complexity of this signaling cascade allows the TGF-b superfamily to perform unique, overlapping or redundant functions. […] We aim to identify Smad3-small molecule antagonists using a quantitative high throughput screening (qHTS) approach. […]
Suspensions of trypsinized HEPG2 CAGA-GFP cells were dispensed into white, tissue culture-treated, solid 1536-well plates at 5uL/well (1000 cells/well final concentration) in DMEM medium supplemented with 1% FBS. […] The plates were measured on an Acumen eX3 Explorer plate reader for GFP fluorescence (ex488/em500-530). GFP values were calculated by determining the mean GFP fluorescence of individual cells, and compiling these values for each well to determine a total well GFP signal. The %Activity was determined from the corrected fluorescence values. […]
Concentration-response curves were fitted to the signals arising from the resulting fluorescence. […]
(In qHTS, concentration-response curves come from the screen itself.)
As to `COc1cc2c(c(OC)c1OC)-c1ccc(OC)c(=O)cc1C(N)CC2` (stereo unspecified), the Potency is active: 398 nM.
